PubChem BioAssay AID1053208 | Peter MacCallum Cancer Centre – 2014

Test: 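Genes whose silencing cuts survival of bone tumour cells only with doxorubicin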 (primary screen)
Cells: mouse osteosarcoma cells, early-passage culture from an engineered mouse model of fibroblastic bone tumour
Reagents: siRNA pool against mouse genes, 40 nM
Duration: about 120 h (48 h before drug, then 72 h with drug)
Challenge: doxorubicin 100 nM for 72 h, roughly 30-40% inhibitory dose
Read-out: 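Luminescent ATP signal taken as viability with or without 100 nM doxorubicin for 72 h; mean of two wells set against non-targeting siRNA and turned into robust z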
Scale: viability z-score with doxorubicin: higher = more viable cells under doxorubicin; viability z-score without drug: higher = more viable cells with knock-down alone
Call rule: 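Called active if knock-down leaves viability unchanged without drug (z within -2 to 2) but lowers it with doxorubicin (z at or under -2)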
In all, the deposit lists about 17,000 reagents; shown is a random part of them. Over the whole deposit, 788 (4.7%) were called active. 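Calls rest on z-score classes alone; an extra cut-off of viability at most 70% of control was not applied to them.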 Entries without a mark were called inactive. Some reagents were tested in more than one well and are listed for each. Not all columns of the deposit are shown. Reagent sequences are not shown.

combined z-score class	viability z-score with doxorubicin	viability z-score without drug	Target gene
no change with or without drug	-0.34	0	Rab9b
no change with or without drug	-0.34	0.17	5730455P16Rik
no change with or without drug	1.57	0.17	AY074887
no change with or without drug	1.12	0.84	Dpt
low cell count without drug only	-1.8	-2.19	Nucleolin
no change with or without drug	0.45	0.51	Cux2
no change with or without drug	0.22	-1.69	Slc2a9
no change with or without drug	0	0.51	Ddx52
no change with or without drug	-0.45	0	S100a6
no change with or without drug	-0.45	0.17	Atg5
no change with or without drug	-0.11	0.51	Clcn5
no change with or without drug	0.22	-1.18	Atox1
no change with or without drug	-1.35	0	Rragc
no change with or without drug	-0.45	0.84	St6gal2
no change with or without drug	0.45	0.67	Trim12c
no change with or without drug	-1.12	0.51	Vmn1r15
no change with or without drug	0.79	0.17	H2-M10.6
no change with or without drug	0.9	0.17	Pnma1
no change with or without drug	-0.22	0.67	Srsf12
no change with or without drug	-1.12	-1.85	Iapp
high cell count without drug only	0.45	2.19	Hs6st1
no change with or without drug	-0.22	0.17	Pik3cg
no change with or without drug	-0.45	0.84	Pik3cg
no change with or without drug	-0.67	1.18	Lgr5
low cell count without drug only	-0.9	-2.87	Exd1
no change with or without drug	0.22	0.17	Xpa
no change with or without drug	-0.22	1.01	Dlat
low cell count with doxorubicin only (active)	-3.04	-0.84	Timm22
high cell count without drug only	0.9	3.37	Gramd1b
no change with or without drug	-1.12	-1.85	Or5w12
no change with or without drug	-0.67	-0.17	Fez2
high cell count with doxorubicin only	2.02	0.34	Nmt2
no change with or without drug	-0.22	-0.51	Gdf10
no change with or without drug	1.12	0.84	Glce
no change with or without drug	0.34	0.67	Xpc
no change with or without drug	0.34	1.01	Trim65
no change with or without drug	1.57	0.51	Caprin1
no change with or without drug	-0.45	0.84	1700019M22Rik
no change with or without drug	0	0.67	Wnt6
low cell count with doxorubicin only (active)	-4.27	0.51	Polr2c
no change with or without drug	1.8	0.34	Herc4
no change with or without drug	0.67	0.84	Gprasp3
no change with or without drug	-0.34	0	Wt1
no change with or without drug	0.67	0.17	Sft2d2
no change with or without drug	-1.35	0.84	Slc12a1
no change with or without drug	0	-0.51	Klra8
no change with or without drug	1.35	0.17	Ndufv3
no change with or without drug	-0.22	-0.84	Ifih1
no change with or without drug	1.35	1.69	Art3
no change with or without drug	0	0.51	Alox15

5 neighbouring reagents from above, quoted:
combined z-score class	viability z-score with doxorubicin	viability z-score without drug	Target gene
no change with or without drug	0.45	0.67	Trim12c
no change with or without drug	-1.12	0.51	Vmn1r15
no change with or without drug	0.79	0.17	H2-M10.6
no change with or without drug	0.9	0.17	Pnma1
no change with or without drug	-0.22	0.67	Srsf12
